Experimental data published in patent US6689805B2, “Pyrazole-3-one derivative, method for preparing the same, and pharmaceutical composition containing the same” (CJ Corp., priority 2002, dated 2004).
Some entries share one result that the patent states for a list of compounds.

Biological target: T1, COX-2 (Mus musculus, UniProt Q05769)
T1 construct: endogenous in cells
T1 sequence (Q05769 18-604): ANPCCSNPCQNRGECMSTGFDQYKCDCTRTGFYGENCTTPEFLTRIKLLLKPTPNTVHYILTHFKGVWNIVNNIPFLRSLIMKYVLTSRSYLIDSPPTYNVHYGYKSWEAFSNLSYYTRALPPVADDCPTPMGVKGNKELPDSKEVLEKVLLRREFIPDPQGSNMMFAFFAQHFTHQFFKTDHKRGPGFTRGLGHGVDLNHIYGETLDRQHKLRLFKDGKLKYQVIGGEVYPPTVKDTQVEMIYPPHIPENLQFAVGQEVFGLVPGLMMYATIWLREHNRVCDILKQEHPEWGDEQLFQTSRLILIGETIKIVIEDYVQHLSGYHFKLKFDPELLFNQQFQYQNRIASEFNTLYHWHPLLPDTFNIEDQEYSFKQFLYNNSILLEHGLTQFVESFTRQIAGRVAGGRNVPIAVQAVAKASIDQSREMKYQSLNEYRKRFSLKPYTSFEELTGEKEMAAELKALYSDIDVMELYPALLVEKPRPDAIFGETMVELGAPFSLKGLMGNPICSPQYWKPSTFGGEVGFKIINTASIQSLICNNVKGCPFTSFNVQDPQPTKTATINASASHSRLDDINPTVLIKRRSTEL
Test: Assay for the COX-2 inhibitory activity using RAW 264.7 cell line (PGE2 inhibition)
Format: cell-based
Conditions: compared with reference Valdecoxib; for COX-2 inhibitory activities compared with the reference: 10 nM; for inhibition (%) ratios of COX-2 to COX-1: COX-2 at 10 nM vs COX-1 at 1 μM
Experimental: Each well was treated with 250 μM of aspirin and incubated at 37° C. for 2 hours. After the culture media were replaced with new culture media, the new culture media were treated with a test compound (10 nM) and incubated for 30 minutes. Then, each well was treated with interferon ? (100 units/ml) and lipopolysaccharide (LPS, 100 ng/ml) and incubated for 18 hours. The culture media were transferred to other test tubes. The concentration of PGE2 was quantified by means of the EIA kit (Cayman Chemicals).
The percentages of the COX inhibition were calculated according to the following equation:
% Inhibition=(concentration of PGE2 in test compound-untreated sample−concentration of PGE2 in test compound-treated sample) / (concentration of PGE2 in test compound-untreated sample)×100

Row | Structure (SMILES) | COX-2 inhibitory activities compared with the reference | inhibition (%) ratios of COX-2 to COX-1
1 | Cc1ccc(-c2c(-c3ccc(S(C)(=O)=O)cc3)n(C)n(C)c2=O)cc1 [Example 7, 5-(4-methanesulfonylphenyl)-1,2-dimethyl-4-(4-methylphenyl)-1,2-dihydropyrazole-3-one] | significantly higher than the reference | significantly higher than that in the reference
2 | Cn1c(-c2ccc(S(C)(=O)=O)cc2)c(-c2ccccc2)c(=O)n1C [Example 6, 5-(4-methanesulfonylphenyl)-1,2-dimethyl-4-phenyl-1,2-dihydropyrazole-3-one] | significantly higher than the reference | significantly higher than that in the reference
3 | COc1ccc(-c2c(-c3ccc(S(C)(=O)=O)cc3)n(C)n(C)c2=O)cc1 [Example 5, 5-(4-methanesulfonylphenyl)-4-(4-methoxyphenyl)-1,2-dimethyl-1,2-dihydropyrazole-3-one] | significantly higher than the reference | significantly higher than that in the reference
